PubChem BioAssay AID1259254, NCATS | 2017
Screen: 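Gene knock-downs that lead to re-replication, shown by excess G2 DNA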 (primary screen). Cells: human HCT116 colorectal cancer cells. Knock-down reagent: single siRNA against human genes. Timing: 3 days. Read-out: 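Imaged Hoechst DNA stain sorts each cell into a cycle phase by DNA amount; per plate, G2 fraction set to 0% for non-targeting and 100% for GMNN siRNA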. Reading the numbers: G2 robust z-score and G2 cells, % of GMNN control: higher = more G2 cells, more excess DNA replication; raw share of cells in G2: higher = larger share of cells with G2 DNA content. Call rule: 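An siRNA counts as active if its G2 robust z-score lies at least 5 MADs above the screen median; here such calls match roughly 38% of GMNN control or more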.
In all, the deposit lists about 59,000 reagents; below is a random part of them. Over the whole deposit, about 1,550 (2.6%) are marked active. 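G2 share is only a proxy for re-replication; each gene was hit by three separate siRNAs, and active genes were retested.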 The raw values are shown without normalisation. Entries without a mark were called inactive. The numbers tell different reagents against one gene apart. The record does not give: the amount of reagent.

target gene | siRNA no. | G2 robust z-score | G2 cells, % of GMNN control | raw share of cells in G2 (%)
OR10A4 | 1 | 1.6 | 14.2 | 8.83
OR10A4 | 2 | 1.18 | 11.3 | 7.4
OR10A4 | 3 | -0.662 | -1.69 | 2.75
RPS16P1 | 1 | 3.5 | 27.6 | 14.3
RPS16P1 | 2 | 1.69 | 14.9 | 9.06
RPS16P1 | 3 | 1.55 | 13.9 | 7.84
SIAH2 | 1 | 1.71 | 15 | 10.7
SIAH2 | 2 | 0.354 | 5.46 | 6.42
SIAH2 | 3 | 0.251 | 4.73 | 5.52
OR5H2 | 1 | -0.349 | 0.511 | 4.8
OR5H2 | 2 | -0.787 | -2.57 | 3.46
OR5H2 | 3 | 5.03 (active) | 38.3 | 12.8
GCDH | 1 | 4.28 | 33.1 | 17.3
GCDH | 2 | 2.18 | 18.3 | 12.2
GCDH | 3 | 2.62 | 21.4 | 11.3
SEPTIN6 | 1 | -0.327 | 0.663 | 6.64
SEPTIN6 | 2 | 1.06 | 10.4 | 7.44
SEPTIN6 | 3 | 0.297 | 5.06 | 5.85
CR1 | 1 | 0.797 | 8.58 | 8.13
CR1 | 2 | -0.132 | 2.04 | 4.8
CR1 | 3 | -0.532 | -0.776 | 4.68
PYCARD | 1 | 0.441 | 6.07 | 5.98
PYCARD | 2 | -1.57 | -8.05 | 1.52
PYCARD | 3 | -1.15 | -5.11 | 3.85
JMJD1C | 1 | -0.474 | -0.37 | 2.96
JMJD1C | 2 | -0.139 | 1.99 | 3.86
JMJD1C | 3 | -0.918 | -3.49 | 2.3
OLFM4 | 1 | -1.18 | -5.34 | 2.92
OLFM4 | 2 | -0.493 | -0.503 | 3.73
OLFM4 | 3 | -1.2 | -5.45 | 1.42
REEP1 | 1 | -0.249 | 1.21 | 3.75
REEP1 | 2 | 0.532 | 6.71 | 5.73
REEP1 | 3 | 1.65 | 14.6 | 9.79
NF2 | 1 | 1.13 | 10.9 | 9.58
NF2 | 2 | -1.1 | -4.74 | 1.63
NF2 | 3 | 0.942 | 9.59 | 9.27
GIT2 | 1 | 0.177 | 4.21 | 6.46
GIT2 | 2 | 0.597 | 7.17 | 7.91
GIT2 | 3 | -0.719 | -2.09 | 2.49
FRAT2 | 1 | 1.33 | 12.3 | 7.61
FRAT2 | 2 | 3.5 | 27.6 | 14.8
FRAT2 | 3 | -0.0884 | 2.35 | 4.96
UBE2V2 | 1 | 1.22 | 11.5 | 8.56
UBE2V2 | 2 | 3.7 | 29 | 17.9
UBE2V2 | 3 | 2 | 17.1 | 10.1
KCNK18 | 1 | 0.277 | 4.91 | 7.08
KCNK18 | 2 | 1.41 | 12.9 | 9.14
KCNK18 | 3 | -0.679 | -1.81 | 3.67
CCZ1B | 1 | -0.84 | -2.94 | 2.51
CCZ1B | 2 | -0.12 | 2.12 | 3.86
CCZ1B | 3 | 0.292 | 5.03 | 4.8
LOC100533706 | 1 | -0.764 | -2.41 | 2.28
LOC100533706 | 2 | 0.0335 | 3.2 | 4.98
LOC100533706 | 3 | -0.656 | -1.65 | 2.61
IL1RAPL2 | 1 | -0.311 | 0.783 | 4.71
IL1RAPL2 | 2 | -0.289 | 0.935 | 4.34
IL1RAPL2 | 3 | -0.352 | 0.494 | 3.47
EVX2 | 1 | 0.235 | 4.62 | 7.9
EVX2 | 2 | 3.71 | 29.1 | 16.3
EVX2 | 3 | -0.909 | -3.43 | 3.03
POP7 | 1 | -1.3 | -6.19 | 4.04
POP7 | 2 | -0.197 | 1.58 | 4.35
POP7 | 3 | 3.82 | 29.9 | 18.7
MRPL30 | 1 | -0.898 | -3.35 | 2.58
MRPL30 | 2 | 0.994 | 9.96 | 8.32
MRPL30 | 3 | 0.701 | 7.9 | 5.74
EYS | 1 | 4.06 | 31.5 | 14.8
EYS | 2 | 0.667 | 7.66 | 6.61
EYS | 3 | -0.504 | -0.582 | 3.95
EYS | 4 | -0.209 | 1.5 | 4.11
EYS | 5 | -0.132 | 2.04 | 3.59
EYS | 6 | 1.84 | 15.9 | 9.62
EYS | 7 | -0.019 | 2.83 | 4.62
EYS | 8 | 0.177 | 4.22 | 4.36
EYS | 9 | -0.469 | -0.331 | 3.48

Laid out differently: results already given.
| target gene | siRNA no. | G2 robust z-score | G2 cells, % of GMNN control | raw share of cells in G2 (%) |
| --- | --- | --- | --- | --- |
| GCDH | 2 | 2.18 | 18.3 | 12.2 |
| GCDH | 3 | 2.62 | 21.4 | 11.3 |
| SEPTIN6 | 1 | -0.327 | 0.663 | 6.64 |
| SEPTIN6 | 2 | 1.06 | 10.4 | 7.44 |
| SEPTIN6 | 3 | 0.297 | 5.06 | 5.85 |
